Results are given in words; binding and its absence hold for the method and conditions named. In cells and extracts the contact can be indirect. Some binding calls cover weakened binding; strength is not graded here.
Key:
[1] = target: 3×HA-xlMC3R.L (Xenopus laevis melanocortin-3 receptor, L subgenome copy) (Xenopus laevis); assay: co-IP; HEK293T cells co-transfected with 3×HA-xlMC3Rs and 2×Flag-xlMRAPs; lysate incubated with HA-tag rabbit mAb overnight at 4°C, protein A/G agarose beads; blot with anti-FLAG and anti-HA
[2] = target: xlMC3R.L with VF1 (part of Venus) at the C-terminus (Xenopus laevis); assay: split reporter; bimolecular fluorescence complementation of split Venus (VF1 on xlMC3Rs, VF2 on xlMRAPs) in transfected HEK293T cells, fixed 24 h after transfection, confocal microscopy

Sequences of proteins named here, by UniProt entry; tags and fusion partners are left off. A change or cut given only in a name is not applied to a line headed by its entry. A line that says so, or that is headed by a name, gives the form on record, which may keep a tag or linker.
xlMRAP2.L with N-terminal VF2 (part of Venus) and C-terminal 2×Flag (A0A1L8G9N8, form named): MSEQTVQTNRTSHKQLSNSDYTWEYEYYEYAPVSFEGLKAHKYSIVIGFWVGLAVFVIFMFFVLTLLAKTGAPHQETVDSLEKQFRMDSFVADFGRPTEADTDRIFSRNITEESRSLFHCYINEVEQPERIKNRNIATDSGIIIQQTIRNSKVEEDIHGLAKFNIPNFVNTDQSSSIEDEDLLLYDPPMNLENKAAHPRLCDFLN
xlMRAP2.S with N-terminal VF2 (part of Venus) and C-terminal 2×Flag (A0A1L8G336, form named): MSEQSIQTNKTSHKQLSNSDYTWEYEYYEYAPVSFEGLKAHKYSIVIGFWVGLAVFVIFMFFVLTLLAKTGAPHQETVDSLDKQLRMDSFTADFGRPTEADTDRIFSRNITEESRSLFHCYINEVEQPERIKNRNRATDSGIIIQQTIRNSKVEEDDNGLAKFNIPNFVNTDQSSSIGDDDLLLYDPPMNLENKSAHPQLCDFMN

binding [1]	binding [2]	Substance
binds	–	2×Flag-xlMRAP2.L (Xenopus laevis melanocortin receptor accessory protein 2, L subgenome copy) (from UniProt A0A1L8G9N8 1-205)
binds	–	2×Flag-xlMRAP2.S (Xenopus laevis melanocortin receptor accessory protein 2, S subgenome copy) (from UniProt A0A1L8G336 1-205)
–	binds	xlMRAP2.L with N-terminal VF2 (part of Venus) and C-terminal 2×Flag (from UniProt A0A1L8G9N8 1-205)
–	binds	xlMRAP2.S with N-terminal VF2 (part of Venus) and C-terminal 2×Flag (from UniProt A0A1L8G336 1-205)
